± gives the standard deviation of the averaged measurements. The entries are a selection whose mix differs from that of the whole data set. Most values lie at the level of the controls, where differences are scatter.
Compound: Nc1ncnc2c1ncn2[C@@H]1O[C@H](COP(=O)(O)OP(=O)(O)NP(=O)(O)O)[C@@H](O)[C@H]1O [adenylyl imidodiphosphate]
Assay: NP40-soluble protein abundance relative to vehicle (solubility fold change) (ratio); higher = more soluble protein in presence of AMP-PNP
Outline: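 Jurkat crude lysate prepared with a Dounce homogeniser was treated at eight concentrations spanning 0.1 to 10 mM, 10 min at room temperature then 3 min at 37 °C. Solubilisation with 0.8% NP40 and benzonase and ultracentrifugation preceded TMT labelling of the supernatant for LC-MS/MS. Fold change against the detergent-processed vehicle was determined per replicate from vsn-normalised intensities, across three independent experiments.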

Sequences of proteins named here, by UniProt entry; tags and fusion partners are left off. A change or cut given only in a name is not applied to a line headed by its entry.
UniProt P40425: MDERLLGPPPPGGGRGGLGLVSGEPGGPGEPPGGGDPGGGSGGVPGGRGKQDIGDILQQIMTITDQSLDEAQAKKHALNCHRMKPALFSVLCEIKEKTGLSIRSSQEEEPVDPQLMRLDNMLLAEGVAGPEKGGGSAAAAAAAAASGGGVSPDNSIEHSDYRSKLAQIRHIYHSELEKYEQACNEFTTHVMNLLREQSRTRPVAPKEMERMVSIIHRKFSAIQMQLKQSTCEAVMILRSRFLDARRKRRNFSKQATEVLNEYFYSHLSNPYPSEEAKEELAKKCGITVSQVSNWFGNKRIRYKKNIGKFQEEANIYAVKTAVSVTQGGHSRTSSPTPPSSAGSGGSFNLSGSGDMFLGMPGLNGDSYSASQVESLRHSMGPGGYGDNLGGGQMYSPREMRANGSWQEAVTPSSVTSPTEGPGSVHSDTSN
UniProt P42285: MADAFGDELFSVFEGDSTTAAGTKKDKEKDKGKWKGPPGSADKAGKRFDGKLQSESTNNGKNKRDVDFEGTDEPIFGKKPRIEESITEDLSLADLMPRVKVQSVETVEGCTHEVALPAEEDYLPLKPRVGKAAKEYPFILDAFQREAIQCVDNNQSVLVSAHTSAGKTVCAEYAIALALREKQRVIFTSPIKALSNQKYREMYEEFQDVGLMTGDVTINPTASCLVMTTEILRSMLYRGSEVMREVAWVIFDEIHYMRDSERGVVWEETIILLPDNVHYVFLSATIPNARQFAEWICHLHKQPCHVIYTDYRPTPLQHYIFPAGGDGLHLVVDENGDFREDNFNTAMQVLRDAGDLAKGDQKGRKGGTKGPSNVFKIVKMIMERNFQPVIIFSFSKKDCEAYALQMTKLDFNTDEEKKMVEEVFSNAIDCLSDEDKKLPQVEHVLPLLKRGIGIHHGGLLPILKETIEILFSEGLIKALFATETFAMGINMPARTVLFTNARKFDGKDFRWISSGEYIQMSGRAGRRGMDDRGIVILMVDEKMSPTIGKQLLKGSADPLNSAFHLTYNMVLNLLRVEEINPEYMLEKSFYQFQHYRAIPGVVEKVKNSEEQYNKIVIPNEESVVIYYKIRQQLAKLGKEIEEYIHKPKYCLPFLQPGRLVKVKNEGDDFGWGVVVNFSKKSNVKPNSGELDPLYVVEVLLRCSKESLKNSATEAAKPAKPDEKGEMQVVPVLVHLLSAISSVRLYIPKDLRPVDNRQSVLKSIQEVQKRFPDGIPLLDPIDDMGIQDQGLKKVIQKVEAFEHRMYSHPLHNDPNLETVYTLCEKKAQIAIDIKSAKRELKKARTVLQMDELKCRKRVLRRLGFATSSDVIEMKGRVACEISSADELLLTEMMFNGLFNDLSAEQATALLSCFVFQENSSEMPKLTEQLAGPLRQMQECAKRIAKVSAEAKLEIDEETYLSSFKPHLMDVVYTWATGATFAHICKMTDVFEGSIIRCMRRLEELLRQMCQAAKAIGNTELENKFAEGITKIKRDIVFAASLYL
UniProt P43007: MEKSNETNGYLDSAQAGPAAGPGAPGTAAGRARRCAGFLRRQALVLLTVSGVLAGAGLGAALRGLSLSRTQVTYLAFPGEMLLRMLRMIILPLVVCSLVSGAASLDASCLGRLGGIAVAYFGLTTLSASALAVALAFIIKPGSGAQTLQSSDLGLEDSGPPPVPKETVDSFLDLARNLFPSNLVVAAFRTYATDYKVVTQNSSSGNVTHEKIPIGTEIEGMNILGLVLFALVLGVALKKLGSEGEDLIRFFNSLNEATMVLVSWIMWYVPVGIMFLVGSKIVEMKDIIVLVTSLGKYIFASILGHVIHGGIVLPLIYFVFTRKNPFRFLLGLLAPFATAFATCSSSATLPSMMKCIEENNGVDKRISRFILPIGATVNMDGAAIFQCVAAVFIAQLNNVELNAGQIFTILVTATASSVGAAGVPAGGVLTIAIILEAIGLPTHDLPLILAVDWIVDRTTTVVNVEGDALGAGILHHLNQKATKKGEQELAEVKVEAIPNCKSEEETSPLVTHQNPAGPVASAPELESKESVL
UniProt P53602: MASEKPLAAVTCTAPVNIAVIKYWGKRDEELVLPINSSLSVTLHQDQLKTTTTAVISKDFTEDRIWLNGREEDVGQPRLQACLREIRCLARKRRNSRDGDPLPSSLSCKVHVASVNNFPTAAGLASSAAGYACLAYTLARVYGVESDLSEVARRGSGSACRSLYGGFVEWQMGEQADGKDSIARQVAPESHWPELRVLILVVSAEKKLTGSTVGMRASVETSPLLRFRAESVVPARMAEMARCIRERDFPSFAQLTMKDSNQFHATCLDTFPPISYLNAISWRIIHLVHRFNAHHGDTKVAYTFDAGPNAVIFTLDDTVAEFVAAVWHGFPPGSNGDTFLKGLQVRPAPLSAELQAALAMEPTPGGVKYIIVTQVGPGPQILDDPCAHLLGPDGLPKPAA
UniProt P53618: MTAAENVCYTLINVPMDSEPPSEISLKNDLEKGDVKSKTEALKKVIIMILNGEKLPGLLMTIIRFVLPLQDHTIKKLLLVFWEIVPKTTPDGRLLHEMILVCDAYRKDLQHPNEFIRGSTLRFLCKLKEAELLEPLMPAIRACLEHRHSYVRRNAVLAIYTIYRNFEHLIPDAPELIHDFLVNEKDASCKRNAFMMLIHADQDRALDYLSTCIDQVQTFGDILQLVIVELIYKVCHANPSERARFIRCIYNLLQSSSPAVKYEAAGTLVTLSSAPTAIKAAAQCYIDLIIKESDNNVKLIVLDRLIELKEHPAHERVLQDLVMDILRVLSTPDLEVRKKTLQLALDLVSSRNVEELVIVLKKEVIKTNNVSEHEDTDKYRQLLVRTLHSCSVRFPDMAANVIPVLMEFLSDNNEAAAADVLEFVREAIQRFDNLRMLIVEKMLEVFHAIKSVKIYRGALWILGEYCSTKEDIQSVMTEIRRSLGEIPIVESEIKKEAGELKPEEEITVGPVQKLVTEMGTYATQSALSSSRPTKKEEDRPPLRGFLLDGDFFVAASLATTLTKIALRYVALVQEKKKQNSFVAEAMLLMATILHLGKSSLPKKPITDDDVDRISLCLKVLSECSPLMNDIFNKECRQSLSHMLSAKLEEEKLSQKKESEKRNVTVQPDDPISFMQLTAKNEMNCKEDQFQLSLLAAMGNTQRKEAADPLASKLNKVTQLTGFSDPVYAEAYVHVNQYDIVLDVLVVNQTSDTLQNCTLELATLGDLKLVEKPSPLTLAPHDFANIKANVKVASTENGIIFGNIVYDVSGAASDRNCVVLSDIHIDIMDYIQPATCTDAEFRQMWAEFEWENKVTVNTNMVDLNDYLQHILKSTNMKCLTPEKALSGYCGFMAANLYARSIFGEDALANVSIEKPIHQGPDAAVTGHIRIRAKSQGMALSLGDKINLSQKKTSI
UniProt P53597: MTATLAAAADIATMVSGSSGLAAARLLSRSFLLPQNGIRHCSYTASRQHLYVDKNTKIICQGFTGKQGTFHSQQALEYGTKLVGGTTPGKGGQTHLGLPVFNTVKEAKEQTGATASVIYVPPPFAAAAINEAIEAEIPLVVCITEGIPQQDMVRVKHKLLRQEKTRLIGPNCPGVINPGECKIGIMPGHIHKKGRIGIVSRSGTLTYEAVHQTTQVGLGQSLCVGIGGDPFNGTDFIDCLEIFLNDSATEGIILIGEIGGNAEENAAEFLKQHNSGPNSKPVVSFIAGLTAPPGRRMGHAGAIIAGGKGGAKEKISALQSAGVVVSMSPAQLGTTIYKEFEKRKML
UniProt P52298: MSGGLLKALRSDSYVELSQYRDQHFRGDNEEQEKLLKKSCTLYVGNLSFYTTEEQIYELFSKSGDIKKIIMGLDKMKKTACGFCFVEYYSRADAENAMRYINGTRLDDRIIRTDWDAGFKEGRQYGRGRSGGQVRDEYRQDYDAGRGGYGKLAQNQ
UniProt P40939: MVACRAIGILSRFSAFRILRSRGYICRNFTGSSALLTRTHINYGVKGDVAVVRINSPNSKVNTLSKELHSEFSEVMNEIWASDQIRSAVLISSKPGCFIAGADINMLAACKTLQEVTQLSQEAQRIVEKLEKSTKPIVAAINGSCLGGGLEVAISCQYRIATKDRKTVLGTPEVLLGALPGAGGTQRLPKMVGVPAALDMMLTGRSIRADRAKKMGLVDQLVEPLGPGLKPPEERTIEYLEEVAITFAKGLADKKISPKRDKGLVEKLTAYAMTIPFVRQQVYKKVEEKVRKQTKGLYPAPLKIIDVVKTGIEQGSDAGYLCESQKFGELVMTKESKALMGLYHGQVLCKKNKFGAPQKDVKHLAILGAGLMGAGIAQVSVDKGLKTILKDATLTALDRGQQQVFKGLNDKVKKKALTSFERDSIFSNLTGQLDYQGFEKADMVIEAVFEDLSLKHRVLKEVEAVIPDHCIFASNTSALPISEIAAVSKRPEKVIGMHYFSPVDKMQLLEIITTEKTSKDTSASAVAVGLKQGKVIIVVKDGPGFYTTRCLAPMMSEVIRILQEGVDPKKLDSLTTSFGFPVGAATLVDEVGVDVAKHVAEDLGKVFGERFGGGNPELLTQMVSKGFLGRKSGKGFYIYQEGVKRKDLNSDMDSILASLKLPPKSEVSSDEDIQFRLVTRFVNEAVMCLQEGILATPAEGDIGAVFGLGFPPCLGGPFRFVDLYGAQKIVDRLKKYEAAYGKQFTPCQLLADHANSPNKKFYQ
UniProt P50583: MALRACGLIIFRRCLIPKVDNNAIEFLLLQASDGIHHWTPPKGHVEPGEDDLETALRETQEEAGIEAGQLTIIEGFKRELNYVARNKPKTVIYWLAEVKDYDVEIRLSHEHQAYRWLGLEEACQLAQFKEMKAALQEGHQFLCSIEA
UniProt P52564: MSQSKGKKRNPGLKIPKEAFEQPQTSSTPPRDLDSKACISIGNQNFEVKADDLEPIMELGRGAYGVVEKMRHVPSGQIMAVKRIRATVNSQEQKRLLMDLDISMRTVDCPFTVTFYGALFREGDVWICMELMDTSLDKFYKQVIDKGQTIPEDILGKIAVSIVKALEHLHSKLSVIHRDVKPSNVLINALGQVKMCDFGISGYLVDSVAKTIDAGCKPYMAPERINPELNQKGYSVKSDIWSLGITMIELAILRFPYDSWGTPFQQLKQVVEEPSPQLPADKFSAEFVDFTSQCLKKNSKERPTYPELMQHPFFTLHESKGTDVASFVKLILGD
UniProt P42224: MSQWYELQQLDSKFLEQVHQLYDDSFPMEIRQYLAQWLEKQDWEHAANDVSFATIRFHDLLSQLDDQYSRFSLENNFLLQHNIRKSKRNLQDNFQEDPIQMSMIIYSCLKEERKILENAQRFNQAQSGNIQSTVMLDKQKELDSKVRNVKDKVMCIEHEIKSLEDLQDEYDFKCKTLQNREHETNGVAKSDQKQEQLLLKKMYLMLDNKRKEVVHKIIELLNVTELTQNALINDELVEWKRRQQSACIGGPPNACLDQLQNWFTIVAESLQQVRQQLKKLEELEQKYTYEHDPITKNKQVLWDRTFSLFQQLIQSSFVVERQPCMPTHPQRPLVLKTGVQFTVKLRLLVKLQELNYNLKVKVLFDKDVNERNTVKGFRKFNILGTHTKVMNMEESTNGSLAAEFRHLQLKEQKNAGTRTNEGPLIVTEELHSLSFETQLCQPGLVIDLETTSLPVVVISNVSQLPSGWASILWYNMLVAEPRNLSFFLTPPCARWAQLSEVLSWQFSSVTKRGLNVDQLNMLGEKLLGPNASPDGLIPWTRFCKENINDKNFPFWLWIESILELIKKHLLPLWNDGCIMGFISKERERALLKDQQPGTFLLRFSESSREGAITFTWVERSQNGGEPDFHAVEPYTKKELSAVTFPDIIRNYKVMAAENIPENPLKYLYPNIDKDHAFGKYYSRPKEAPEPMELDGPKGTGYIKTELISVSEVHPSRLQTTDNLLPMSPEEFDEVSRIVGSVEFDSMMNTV
UniProt P55039: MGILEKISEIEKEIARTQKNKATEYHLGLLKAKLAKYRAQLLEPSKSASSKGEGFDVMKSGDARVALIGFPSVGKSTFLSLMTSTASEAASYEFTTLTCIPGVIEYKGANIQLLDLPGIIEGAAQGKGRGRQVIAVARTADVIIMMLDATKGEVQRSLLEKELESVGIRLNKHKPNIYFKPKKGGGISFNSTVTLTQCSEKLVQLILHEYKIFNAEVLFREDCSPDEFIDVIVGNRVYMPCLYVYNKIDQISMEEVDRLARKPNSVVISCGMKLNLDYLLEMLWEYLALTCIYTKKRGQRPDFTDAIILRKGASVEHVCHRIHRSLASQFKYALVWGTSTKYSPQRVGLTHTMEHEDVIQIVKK
UniProt P46976: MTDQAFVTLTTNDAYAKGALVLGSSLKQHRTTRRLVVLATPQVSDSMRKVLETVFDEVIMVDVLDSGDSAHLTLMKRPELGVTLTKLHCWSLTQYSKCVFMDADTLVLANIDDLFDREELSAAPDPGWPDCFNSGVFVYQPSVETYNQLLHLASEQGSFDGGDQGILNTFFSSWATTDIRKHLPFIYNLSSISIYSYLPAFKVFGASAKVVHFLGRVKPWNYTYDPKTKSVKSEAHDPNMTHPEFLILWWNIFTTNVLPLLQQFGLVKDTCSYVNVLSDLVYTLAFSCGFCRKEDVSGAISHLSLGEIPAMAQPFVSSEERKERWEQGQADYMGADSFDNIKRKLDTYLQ

Target	NP40-soluble protein abundance (concentration: 0.1mM)	NP40-soluble protein abundance (concentration: 0.5mM)
UniProt P48047	1.01 ± 0.032	1.03 ± 0.065
UniProt P55327-2|P55327-4	0.975 ± 0.075	0.986 ± 0.076
RPL14 (UniProt P50914)	1.07 ± 0.04	0.988 ± 0.047
HIRA (UniProt P54198)	1.02 ± 0.011	0.9991 ± 0.0082
ADK (UniProt P55263)	0.99 ± 0.032	0.986 ± 0.049
ALDH9A1 (UniProt P49189)	1.02 ± 0.018	0.995 ± 0.034
UniProt P48739 and related entries	0.991 ± 0.0095	1.01 ± 0.03
PBX2 (UniProt P40425)	1.01 ± 0.04	1.01 ± 0.024
UniProt P42285	1.03 ± 0.019	1.02 ± 0.052
SLC1A4 (UniProt P43007)	0.976 ± 0.018	0.9892 ± 0.0086
UniProt P55211 and related entries	0.996 ± 0.058	0.982 ± 0.012
ACADSB (UniProt P45954)	1.02 ± 0.034	1.01 ± 0.032
UniProt P41743	1.01 ± 0.011	0.961 ± 0.025
MNX1 (UniProt P50219)	1.01 ± 0.026	1.015 ± 0.008
PPP1R2 (UniProt P41236)	1.04 ± 0.029	1.07 ± 0.056
MVD (UniProt P53602)	0.984 ± 0.022	0.993 ± 0.041
UniProt P41250	0.973 ± 0.025	1.002 ± 0.0081
UniProt P52735 and related entries	0.991 ± 0.08	0.969 ± 0.073
METAP1 (UniProt P53582)	1.01 ± 0.029	1.03 ± 0.025
UniProt P45880 and related entries	1.01 ± 0.022	1.01 ± 0.035

Copied from the list:
Entry of UniProt P41743 under NP40-soluble protein abundance (concentration: 0.5mM): 0.961 ± 0.025
Entry of RPL14 (UniProt P50914) under NP40-soluble protein abundance (concentration: 0.1mM): 1.07 ± 0.04
Entry of PBX2 (UniProt P40425) under NP40-soluble protein abundance (concentration: 0.5mM): 1.01 ± 0.024

The results go on:

Target	NP40-soluble protein abundance (concentration: 0.1mM)	NP40-soluble protein abundance (concentration: 0.5mM)
COPB1 (UniProt P53618)	0.999 ± 0.04	0.968 ± 0.066
SUCLG1 (UniProt P53597)	0.981 ± 0.035	1.02 ± 0.063
CASP2 (UniProt P42575)	1.02 ± 0.038	0.985 ± 0.057
NCBP2 (UniProt P52298)	1.01 ± 0.041	1.04 ± 0.046
UBA7 (UniProt P41226)	0.996 ± 0.033	0.964 ± 0.031
UniProt P47813	0.977 ± 0.042	1.01 ± 0.079
HSD17B4 (UniProt P51659)	1.04 ± 0.022	1.03 ± 0.028
RASSF2 (UniProt P50749)	0.991 ± 0.033	1.04 ± 0.037
PPM1F (UniProt P49593)	1.05 ± 0.016	1.01 ± 0.022
EIF2S3 (UniProt P41091)	1.01 ± 0.022	1.06 ± 0.035
ST13 (UniProt P50502)	0.938 ± 0.018	0.947 ± 0.031
HADHA (UniProt P40939)	1 ± 0.02	0.988 ± 0.059
MAPKAPK2 (UniProt P49137)	1 ± 0.0093	0.9878 ± 0.0095
UniProt P53609 and related entries	1.034 ± 0.0098	1.01 ± 0.019
NUDT2 (UniProt P50583)	0.982 ± 0.053	0.984 ± 0.081
RFC3 (UniProt P40938)	1.043 ± 0.0069	1.02 ± 0.049
THOP1 (UniProt P52888)	0.966 ± 0.033	0.979 ± 0.076
UniProt P50851 and related entries	0.992 ± 0.011	0.973 ± 0.043
NAPA (UniProt P54920)	1.01 ± 0.036	1.02 ± 0.026
UniProt P52564	0.994 ± 0.029	0.981 ± 0.025

Target	NP40-soluble protein abundance (concentration: 0.1mM)	NP40-soluble protein abundance (concentration: 0.5mM)
SLC12A2 (UniProt P55011)	0.98 ± 0.022	0.969 ± 0.034
UniProt P47897 and related entries	1.05 ± 0.026	1.02 ± 0.094
STAT1 (UniProt P42224)	0.996 ± 0.012	0.99 ± 0.02
SERPINB8 (UniProt P50452)	1.02 ± 0.022	0.998 ± 0.03
GALK1 (UniProt P51570)	1 ± 0.027	0.999 ± 0.02
CASP3 (UniProt P42574)	1.03 ± 0.038	0.999 ± 0.039
HCCS (UniProt P53701)	0.998 ± 0.024	0.986 ± 0.034
CCT4 (UniProt P50991)	1.02 ± 0.032	0.963 ± 0.096
UniProt P49750-3|P49750-4	0.988 ± 0.015	1.03 ± 0.04
LMAN1 (UniProt P49257)	0.987 ± 0.039	0.974 ± 0.025
DRG2 (UniProt P55039)	1.04 ± 0.049	0.999 ± 0.082
HADHB (UniProt P55084)	1.02 ± 0.016	0.999 ± 0.026
HLCS (UniProt P50747)	0.9936 ± 0.0096	0.972 ± 0.019
CTCF (UniProt P49711)	1.004 ± 0.0048	1.02 ± 0.032
UniProt P54687 and related entries	0.999 ± 0.053	0.966 ± 0.042
UniProt P46976 and related entries	1.02 ± 0.014	1.01 ± 0.034
UniProt P54277 and related entries	1.03 ± 0.067	1.03 ± 0.024
UniProt P46783 and related entries	1.046 ± 0.0042	1.028 ± 0.0058
IDH2 (UniProt P48735)	0.982 ± 0.021	0.984 ± 0.013
